In PubChem BioAssay AID504444 (National Center for Advancing Translational Sciences (NCATS), 2011):
About 7,500 (2.1%) of roughly 360,000 compounds were called active. The inconclusive results got no clear call from the source; some entries with a clear call stand among them for comparison. The call rests on the fitted dose curve; in most records, active means well fitted inhibition curve with a large enough effect; inconclusive means small, poorly fitted or top-dose-only effect, or effect the other way; inactive means flat fitted curve, though single readings scatter. Where the call is inconclusive, the potency comes from a doubtful curve fit.

Assay: Nrf2 qHTS screen for inhibitors; further: nearly all actives have a fitted effect of over 60% in size
Conditions: A549 ARE-Fluc reporter, luciferase luminescence, 18-24 h; activity change, negative = inhibition: at 46 µM (top of the series)
In short: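 A549 ARE_Fluc cells (5000/well, 5% FBS OPTI-MEM) pre-incubated 2 h, then treated with compounds 18-24 h at 37C/5% CO2 in concentration-response. CellTiter-Fluor viability read first; BugLite luciferase luminescence after 15 min at room temperature gives Nrf2 activity.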
On the % scale 0 is the no-effect control and ±100 the full control effect; potency means the concentration at half of the fitted maximal effect.

| Structure (SMILES) | Potency | activity change, negative = inhibition |
| --- | --- | --- |
| O=C(CN(c1ccccc1)S(=O)(=O)c1ccccc1)Nc1ccc(F)cc1 | inconclusive: 1.64 µM [activator, partial curve, poor fit] |  |
| CCN1CCN(Cc2cccc(Oc3ccc(Cl)cc3)c2)CC1 | inconclusive: 0.0065 µM [falling, full curve, poor fit] |  |
| COc1ccc(-c2csc(-c3cccs3)n2)cc1OC | inconclusive: 18.4 µM [activator, partial curve] |  |
| Clc1ccc(CON/C=N/c2ncnc3sccc23)c(Cl)c1 | inconclusive: 16.4 µM [falling, single point] |  |
| Cc1ccc(-n2ncc(-c3nn[nH]n3)c2N)cc1 |  | inactive: 17.7% |
| CC(C(=O)Nc1ccc(S(=O)(=O)N2CCCC2)cc1)N(C)Cc1ccc(F)cc1 (centres undefined) | inconclusive: 32.6 µM [falling, partial curve, poor fit] |  |
| O=C(OCCCN1CCOCC1)c1ccc(O)c(O)c1 | inconclusive: 29.1 µM [activator, partial curve, poor fit] |  |
| COc1ccc(-n2cnc3sc4c(c3c2=O)CCCC4)cc1 | inconclusive: 6.51 µM [activator, partial curve] |  |
| Cc1ccc(N2C(=O)N(CC(=O)N(C)Cc3ccccc3)C(=O)C2C)cc1 (centres undefined) | inconclusive: 4.11 µM [activator, full curve, poor fit] |  |
| O=C(Nc1cccc(-c2cn3ccccc3n2)c1)c1ccccc1 | inconclusive: 25.9 µM [activator, partial curve, poor fit] |  |
| O=C(Nc1ccc(-c2nc3ccccc3[nH]2)cc1)c1ccc2c(c1)OCO2 | inconclusive: 5.8 µM [falling, full curve, poor fit] |  |
| O=C(O)c1cccc(CN2C(=O)c3ccccc3C2=O)c1 |  | inactive: 2.83% |
| Nc1c(C(=O)Nc2ccc3c(c2)OCCO3)nnn1Cc1ccc(Cl)cc1 | inconclusive: 2.06 µM [activator, full curve] |  |
| O=C(NCc1c[nH]c2ccccc12)c1ccccc1 | inconclusive: 16.4 µM [activator, partial curve, poor fit] |  |
| Cc1c(C(=O)N2CCCC2)c(S(=O)(=O)NCCc2ccccc2)c(C)n1C | inconclusive: 13 µM [activator, partial curve, poor fit] |  |
| COc1ccc(OC)c2nc3c(cc12)CCC3 | inconclusive: 18.4 µM [falling, partial curve, poor fit] |  |
| CCn1nc(NS(=O)(=O)c2ccc(NC(C)=O)cc2)c2cc3cc(C)ccc3nc21 | inconclusive: 29.1 µM [activator, single point] |  |
| Cc1ccc2c(c1)c(=O)c(Br)c(C)n2Cc1ccccc1 | inconclusive: 18.4 µM [activator, partial curve] |  |
| CC1CN(C(=S)SCC(=O)c2ccc(Cl)cc2)CC(C)O1 (centres undefined) | inconclusive: 32.6 µM [activator, single point] |  |
| COc1cn(-c2ccccc2)nc1C(=O)Nc1ccccc1 | inconclusive: 5.8 µM [activator, full curve] |  |
| O=S(=O)(Cc1ccc(Cl)cc1Cl)c1ccc(Cl)cc1 | inconclusive: 20.6 µM [activator, partial curve] |  |
| COc1cccc(NC(=O)N(Cc2cc3cc(C)cc(C)c3[nH]c2=O)CC2COCCO2)c1 (centres undefined) |  | inactive: -21.4% |

| Structure (SMILES) | Potency | activity change, negative = inhibition |
| --- | --- | --- |
| CC(C)Cc1ccc(CN2CCCC(NC(=O)c3ccnn3C)C2)cc1 (centres undefined) | active: 13 µM |  |
| CCS(=O)(=O)c1c(Nc2cc(C)ccc2C)sc(C(=O)c2ccccc2)c1N | active: 23.1 µM |  |
| COc1cccc(-c2nc(S(=O)(=O)c3ccccc3)c(N3CCC(C)CC3)o2)c1 | inconclusive: 23.1 µM [falling, single point] |  |
| Cc1cc2nc(-c3ccc(SCc4ccc(C(=O)O)cc4)nc3)[nH]c2cc1C | inconclusive: 14.6 µM [activator, partial curve] |  |
| CC1(C)CC(=O)C(=Cc2cn(-c3ccccc3)nc2-c2ccc(Cl)cc2)C(=O)C1 | inconclusive: 0.103 µM [activator, full curve, poor fit] |  |
| Cc1ccc2nc(/N=C(\N)NC(=O)NC3CCCCC3)nc(C)c2c1 | active: 8.2 µM |  |
| N=c1c(S(=O)(=O)c2ccc(Cl)cc2)cc2c(=O)n3ccccc3nc2n1C1CCCC1 | inconclusive: 6.51 µM [falling, full curve, poor fit] |  |
| CC1=C(C(=O)Nc2cccc(C(=O)NC3CCCC(C)C3C)c2)SCCO1 (centres undefined) | inconclusive: 25.9 µM [falling, single point] |  |
| CC(=O)Nc1nc2c(ccc3ccccc32)s1 | inconclusive: 18.4 µM [activator, partial curve] |  |
| Clc1ccc(-c2nc3n(n2)Cc2ccccc2-3)cc1 | inconclusive: 1.16 µM [activator, partial curve] |  |
| Cc1ccc(NC(=O)c2nnn(CC(=O)Nc3ccc(C)c(Cl)c3)c2N)c(C)c1 | inconclusive: 4.11 µM [activator, partial curve, poor fit] |  |
| CC(C)N(Cc1nc(-c2ccc(Cl)cc2)no1)C(=O)c1cccs1 | inconclusive: 9.2 µM [falling, partial curve, poor fit] |  |
| CN(C(=O)/C=C/c1ccc(F)cc1)C1CCCCC1 | inconclusive: 2.91 µM [activator, full curve, poor fit] |  |
| CC1(C)CC(=O)CC2(C1)NCC(c1ccccc1Cl)c1c2[nH]c2ccccc12 (centres undefined) | inconclusive: 18.4 µM [falling, single point] |  |
| Cc1nn(C)c(C)c1NC(=O)c1cc2nc(-c3ccco3)cc(C(F)(F)F)n2n1 |  | inactive: -21.7% |
| O=C(/C=C/Sc1ccc(C(F)(F)F)cn1)c1ccccc1 | inconclusive: 29.1 µM [falling, single point] |  |
| Clc1ccccc1/C=N/c1cc(-c2ccccc2)nn1-c1ccccc1 | inconclusive: 5.8 µM [activator, partial curve] |  |
| O=C1NC(=O)c2cc(NC(=O)C3CCCO3)ccc21 (centres undefined) |  | inactive: 8.97% |
| O=C(c1cccs1)c1cn(CCOc2ccccc2Cl)c2ccccc12 | inconclusive: 32.6 µM [falling, single point] |  |
| [O-]/[N+](=C\c1ccc(OC(F)F)cc1)c1ccccc1 | inconclusive: 0.103 µM [activator, full curve, poor fit] |  |
| CNC(=S)N1CCN(c2nc(-c3cccc(OC)c3)cs2)CC1 | active: 18.4 µM |  |
| CCCCn1c(SCC(=O)N2CCC(C)CC2)nc2ccsc2c1=O |  | inactive: -12.8% |

| Structure (SMILES) | Potency | activity change, negative = inhibition |
| --- | --- | --- |
| CCN(CC)C(=O)c1ccc(CS(=O)(=O)Cc2ccccc2)cc1 | inconclusive: 29.1 µM [falling, partial curve, poor fit] |  |
| Cc1ccc(C(=O)NNC(=O)c2cc3cc4ccccc4nc3s2)cc1 | inconclusive: 29.1 µM [falling, single point] |  |
| Cc1cc(C(=O)CSc2nc(N)cc(N)n2)c(C)n1-c1cccc(C(F)(F)F)c1 | inconclusive: 29.1 µM [falling, single point] |  |
| Cc1ccc(C(=O)CSc2cc(C)nc(SCC(=O)c3ccccc3)n2)cc1 | inconclusive: 11.6 µM [falling, partial curve] |  |
| CCC(c1nnnn1Cc1cccs1)N1CCN(C(=O)c2ccco2)CC1 (centres undefined) | inconclusive: 0.82 µM [falling, partial curve, poor fit] |  |
| O=C(c1ccc(S(=O)(=O)Cc2ccccc2F)c([N+](=O)[O-])c1)N1CCCC1 | inconclusive: 32.6 µM [falling, partial curve, poor fit] |  |
| O=C(CN1C(=O)c2ccccc2S1(=O)=O)NCc1ccc2c(c1)OCO2 | inconclusive: 4.61 µM [activator, full curve, poor fit] |  |
| Cc1cc(OCC(=O)N(Cc2ccc(N(C)C)cc2)C2CCS(=O)(=O)C2)cc(C)c1Cl (centres undefined) |  | inactive: -8.02% |
| O=C(Oc1ccc2c(c1)OCO2)c1ccc(F)cc1Cl | inconclusive: 2.59 µM [falling, full curve, poor fit] |  |
| O=C1NC(=O)/C(=C/c2ccccc2Oc2ccc(Cl)cc2)S1 | inconclusive: 16.4 µM [falling, partial curve, poor fit] |  |
| COc1ccccc1CCNC(=O)CCc1c(C)c2cc3c(C)c(C)oc3cc2oc1=O | inconclusive: 7.31 µM [activator, partial curve, poor fit] |  |
| COC(=O)c1c(N)nc(C)n1-c1ccc(OC)cc1 |  | inactive: -3.29% |
| CCOc1ccc(S(=O)(=O)N(CC)CC)cc1NC(=O)CSCc1c(C)noc1C | inconclusive: 7.31 µM [falling, partial curve, poor fit] |  |
| CCCCNC(=O)COC(=O)c1ccc(N(C)C)cc1 | inconclusive: 20.6 µM [activator, partial curve, poor fit] |  |
| CCC(C)(C)c1ccc(OCCCC[n+]2ccccc2)c(C(C)(C)CC)c1 | active: 23.1 µM |  |
| COc1cc(OC)c(NC(=O)Cc2ccc(-n3c(C)nc4cccnc43)cc2)cc1Cl |  | inactive: -17.2% |
| N#CCC(CNc1ncc(C(F)(F)F)cc1Cl)OC(=O)c1cccc([N+](=O)[O-])c1 (centres undefined) | inconclusive: 6.51 µM [falling, single point] |  |
| Cc1cccc(C(=O)Nc2ccccc2C(=O)OCc2c(C)noc2C)c1 | inconclusive: 8.2 µM [falling, partial curve] |  |
| CS(=O)(=O)N(CC(=O)N1CCOCC1)c1cccc(Cl)c1Cl | inconclusive: 14.6 µM [falling, partial curve, poor fit] |  |
| CCOC(=O)c1cc(-c2ccc(N3CCOCC3)cc2)nn1-c1ccccc1C(=O)O | inconclusive: 13 µM [activator, partial curve, poor fit] |  |

For convenience, 3 of the compounds above.

| Structure (SMILES) | Potency | activity change, negative = inhibition |
| --- | --- | --- |
| CCC(c1nnnn1Cc1cccs1)N1CCN(C(=O)c2ccco2)CC1 (centres undefined) | inconclusive: 0.82 µM [falling, partial curve, poor fit] |  |
| O=C(c1ccc(S(=O)(=O)Cc2ccccc2F)c([N+](=O)[O-])c1)N1CCCC1 | inconclusive: 32.6 µM [falling, partial curve, poor fit] |  |
| O=C(CN1C(=O)c2ccccc2S1(=O)=O)NCc1ccc2c(c1)OCO2 | inconclusive: 4.61 µM [activator, full curve, poor fit] |  |
